The campaign covered roughly 52,000 sequences. About 210 (0.4%) were called active.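 The calls were made as follows: active = gene whose silencing raises cell survival under the drug, median off-target-corrected z-score across its silencing RNAs 2 or more; inactive = the rest.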 This is one part of the list.
Test: Resistance to Poly (ADP-Ribose) Polymerase inhibitor: Gene Identification via Genome-wide siRNA Screen
Details: mouse BRCA2 R2336H ES cells, olaparib, CellTiter-Glo viability; hits give high values
Method in brief: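 Genome-wide siRNA screen (3 siRNAs/gene, 20 nM) in mouse ES cells carrying hypomorphic BRCA2 R2336H; olaparib 500 nM added 48 h post-transfection, CellTiter-Glo viability 72 h later. Normalized to plate-median negative control; MAD z-scores, gene median, seed-adjusted.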

Sequence | z-score
GGAGCUGUAUGAGAUAGAGTT against Zfp566 | inactive: 0.261
GGAAGUUGUAGUUUCGUGGTT against 6332401O19Rik | inactive: -0.0227
GCACCAGGCCACAAUUAAUTT against Luzp2 | inactive: 0.294
GCGGACGGAGGAACUAAUUTT against Arhgef19 | inactive: -0.969
GCUAUUGAGAAACCACUUATT against Rasef | inactive: -1.11
GGGAUACAGGACUAAACGATT against Fgf16 | inactive: 0.812
GGAGUCCUCUCUUCACUUCTT against Serpinb9 | inactive: 0.162
GGAUAUUGUGGUUUUUAGCTT against Pdc | inactive: -1.39
GCUGAAUACAGUUGGUGCUTT against Whsc2 | inactive: 1.77
GGGACAUGCCUGAAAAAUGTT against Txnl6 | inactive: -1.49
GGAGAAAGGCAUCUUCAAATT against Spdef | inactive: 0.861
GGACUGUGUGCAACUGAACTT against Camkk1 | inactive: -1.56
CGGAAGACCCUGAGACUAUTT against Doc2g | inactive: -0.88
CCACAAUAAUGAGCAGCAGTT against Olfr792 | inactive: 1.01
GGGCUCAUUUUCACUGCUUTT against 0610007C21Rik | inactive: -0.483
GGCUAGGUAGACCAUAGAGTT against BC034068 | inactive: 1.07
CCCUCUUGCAGUCAGCUGATT against Rpl41 | inactive: -0.192
GGUGGACAUGAGAAAGUGUTT against 2010316F05Rik | inactive: -0.763
CGGAAGUCAAUUUUGAAAATT against Il31ra | inactive: 0.731
GGAUUCUGCAUGUUUGUACTT against Cds2 | inactive: -1.75
GGUACAUCUUAGAGGCCAATT against Epo | inactive: -0.831
GGUGAAUGAGGACUCUGGGTT against 1700001E16Rik | inactive: 1.21
GGCCUGGACAUCUCUUCUCTT against Taf7 | inactive: 0.867

Sequence | z-score
GGCGGUCAAUGACCUCAUATT against AU018778 | inactive: -1.75
GGAUGAGGAUGGCUAUAAGTT against AI790326 | inactive: 0.272
GGACGAAUUUCUUACAGUATT against 4933412H03Rik | inactive: -1.61
CCAAAAACCACAGUCCACCTT against Dnajb12 | inactive: 1.38
CCACUCAACUAGAUUAUUGTT against 2310040A13Rik | inactive: -0.321
GGAGAUCCUCAUUUGUGUGTT against Ftmt | inactive: -0.3
GGAUCAUGGAUGUAUAAAGTT against B430119L13Rik | inactive: -0.0309
GAGCCAAAUUAGCAGCUUGTT against Rln3 | inactive: 0.201
GGUCAGAAAGACAAUCGCCTT against Nptx1 | inactive: 0.477
CCGAAAAGUGAUAUGCUUUTT against Akap4 | inactive: 0.074
GGCAAAGGAUCUCAACGGATT against Msh6 | inactive: -0.917
GCCUAGACCUAAGCAUAGCTT against Prpmp5 | inactive: 0.671
CGUAUGGAGAUACCACACATT against Hpd | inactive: -0.103
GGUGACCACACCUUCAAAGTT against D930040M24Rik | inactive: 1.65
CCGUCAUCUGGAGAGAAACTT against Dtx3l | inactive: -0.691
GGCUGUGUAAGGAAGGGCUTT against Rgmc | inactive: -0.357
GGAGAUAGGAGCGAUUGCUTT against Dpys | inactive: -1.27
GGAGAUCUACUUGAAGUUATT against Jarid1d | inactive: 0.231
GGACGAUGUCUUAUAGAAGTT against 2700059L22Rik | inactive: 0.467
GGAACUUUGUCAUCAGUGGTT against 9130423L19Rik | inactive: 0.409
GGAGCUAGGCUGCUCUAUUTT against Serpina9 | inactive: 0.0864
CCGGGAAAGAACUCCUAAGTT against Wnt8b | inactive: -0.116
GGUCAAUGUACUACUUCUUTT against Olfr659 | inactive: 1.29

Sequence | z-score
UCCAUUUAGUUGGUGGAGUTT against Olfr1303 | inactive: 0.245
GGAUAUGAAAGUUCUUGAUTT against Akr1c21 | inactive: -0.00542
GGGAAAAUGGCUUAACCGUTT against Siglec10 | inactive: -0.341
GGUACUGGAACAAAAGAAATT against Stk38l | inactive: -0.514
GGCUAUUUAUAAGUCCAGUTT against Vdp | inactive: -0.385
CGGAGUUAACAAGAAGUGATT against Loxl4 | inactive: -0.163
CGACAACCACUUCAACUAUTT against Chn2 | inactive: -0.263
GGAGAAAGCAGCAAGUACATT against Olig3 | inactive: 0.401
GGAAGAAGUAGCUAAAAACTT against Entpd4 | inactive: 2.15
GCAUCGCUAAGUCCGUCUUTT against Aqp4 | inactive: 2.41
CCUCAUGACCCGAAAAGAGTT against 4930424G05Rik | inactive: -1.33
CGUGUGGAUUUUAAUAGAATT against AV249152 | inactive: 0.125
GGAAGGCACUCUACUAGGATT against Sfrs14 | inactive: 0.215
GGAACUGAAUCCAGAAAUGTT against Ldh2 | inactive: -0.377
GGACGGAUCUUGUAAAUACTT against Ctsl | inactive: -0.367
GGUUCUGUGCAAUUUUUAGTT against Dgcr2 | inactive: 0.344
GCUUUGUGUGUUGGUCUCGTT against Aup1 | inactive: -2.33
GGGUUUGCUUUUGUUGAGUTT against Ppie | inactive: -1.09
CCUAUGAAGCCAGUAUCCATT against C1r | inactive: 0.189
CGUGUUAGAAUAAAAACACTT against Acaa2 | inactive: -0.232
CCAGAUAGGUAAAAAACAATT against Acta2 | inactive: 0.265

Part of the list above in another layout.
Sequence	z-score
CCACAAUAAUGAGCAGCAGTT against Olfr792	inactive: 1.01
GGGCUCAUUUUCACUGCUUTT against 0610007C21Rik	inactive: -0.483
GGCUAGGUAGACCAUAGAGTT against BC034068	inactive: 1.07
